Test system: mice
Assay: Spontaneous locomotor activity
Assay type: in vivo
Conditions: for Activity counts: 30 min before test, mean ± SEM

| Structure (SMILES) | change of locomotor activity vs control (IMI 20 mg/kg ip) | Activity counts (IMI 20 mg/kg ip, 6 min) | Activity counts (PTE 50 mg/kg ip, 6 min) | Activity counts (PTE 100 mg/kg ip, 6 min) | Activity counts (PTE 200 mg/kg ip, 5 min) | Activity counts (PTE 200 mg/kg ip, 6 min) | Activity counts (PTE 400 mg/kg ip, 5 min) | Activity counts (PTE 600 mg/kg ip, 5 min) | Activity counts (PTE 800 mg/kg ip, 5 min) | change of locomotor activity vs control (PTE 50 to 200 mg/kg ip) | change of locomotor activity vs control (PTE high doses, 200–800 mg/kg ip) |
| --- | --- | --- | --- | --- | --- | --- | --- | --- | --- | --- | --- |
| CN(C)CCCN1c2ccccc2CCc2ccccc21 [IMI, imipramine, reference compound] | did not significantly change | 1217 ± 114 |  |  |  |  |  |  |  |  |  |
| COc1cc(/C=C/c2ccc(O)cc2)cc(OC)c1 [PTE, trans-3,5-dimethoxy-4′-hydroxy-trans-stilbene] |  |  | 857 ± 132 | 747 ± 96 | 880 ± 134 | 874 ± 87 | 1603 ± 161 | 806 ± 116 | 1613 ± 181 | did not significantly change | not statistically significant changes |

Reference: PMC6482291, “Anticonvulsant Activity of Pterostilbene in Zebrafish and Mouse Acute Seizure Tests” (Neurochemical Research, 2019)
